Measurements published in publication PMC11665855.
Results are given in words; binding and its absence hold for the method and conditions named. Binding seen in cells or lysates may run through a third protein. Some binding calls cover weakened binding; strength is not graded here.

Chains of the proteins cited; added tags and fusions are not shown.
UniProt Q61038: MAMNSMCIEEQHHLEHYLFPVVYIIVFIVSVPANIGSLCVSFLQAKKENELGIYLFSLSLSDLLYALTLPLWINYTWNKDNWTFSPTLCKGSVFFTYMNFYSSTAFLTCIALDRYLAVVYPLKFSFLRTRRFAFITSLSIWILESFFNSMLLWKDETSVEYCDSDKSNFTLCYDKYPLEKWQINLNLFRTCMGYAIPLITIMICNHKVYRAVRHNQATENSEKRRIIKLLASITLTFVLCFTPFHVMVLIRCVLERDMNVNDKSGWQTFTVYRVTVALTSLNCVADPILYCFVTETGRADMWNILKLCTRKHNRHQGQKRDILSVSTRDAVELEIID
UniProt P49407: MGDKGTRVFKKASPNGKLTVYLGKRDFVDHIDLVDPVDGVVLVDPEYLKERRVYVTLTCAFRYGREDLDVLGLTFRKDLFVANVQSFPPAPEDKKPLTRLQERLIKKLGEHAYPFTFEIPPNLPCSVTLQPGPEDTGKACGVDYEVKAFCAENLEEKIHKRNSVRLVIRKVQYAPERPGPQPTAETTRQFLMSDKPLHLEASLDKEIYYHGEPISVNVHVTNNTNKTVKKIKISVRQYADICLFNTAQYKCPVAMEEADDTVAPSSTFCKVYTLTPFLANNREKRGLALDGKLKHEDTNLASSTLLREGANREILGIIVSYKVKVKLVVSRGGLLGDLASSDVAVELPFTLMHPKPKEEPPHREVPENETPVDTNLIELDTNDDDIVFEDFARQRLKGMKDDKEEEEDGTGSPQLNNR
UniProt P32121: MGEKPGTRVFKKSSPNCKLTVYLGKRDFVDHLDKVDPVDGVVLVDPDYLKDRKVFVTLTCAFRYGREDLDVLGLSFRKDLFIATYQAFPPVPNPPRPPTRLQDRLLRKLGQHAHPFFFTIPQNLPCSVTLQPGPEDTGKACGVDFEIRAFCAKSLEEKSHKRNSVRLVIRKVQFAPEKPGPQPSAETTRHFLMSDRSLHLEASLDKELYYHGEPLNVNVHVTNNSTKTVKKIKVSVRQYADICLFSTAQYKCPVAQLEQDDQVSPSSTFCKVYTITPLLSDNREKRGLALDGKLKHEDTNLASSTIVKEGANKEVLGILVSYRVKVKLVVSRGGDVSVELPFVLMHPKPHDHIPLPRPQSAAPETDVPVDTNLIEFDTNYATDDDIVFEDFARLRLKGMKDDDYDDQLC

Tests used:
[1] = molecular target: mGPR65-RLuc8 (mouse GPR65 tagged with luciferase) (mouse) (UniProt Q61038); test: FRET or BRET; BRET between mGPR65-RLuc8 and YFP tagged β-arrestin in transiently transfected Flp-In-CHO cells; psychosine treatment
[2] = molecular target: mGPR65-RLuc8 (mouse GPR65 tagged with luciferase) (mouse) (UniProt Q61038); test: FRET or BRET; BRET between mGPR65-RLuc8 and YFP tagged β-arrestin in transiently transfected Flp-In-CHO cells; 15 min of exposure to protons or BTB

For “β-arrestin 1-YFP (from UniProt P49407 1-418)”, the binding [1] was “no binding (condition: with psychosine as the agonist)” and the binding [2] was “binds”.

In the case of “β-arrestin 2 (YFP tagged) (from UniProt P32121 1-409)”, the binding [1] is reported as “no binding (condition: with psychosine as the agonist)” and the binding [2] is reported as “binds”.
